Counter-ions that a name gives are not always drawn. The list shows a part of the results. The calls rarely recur for the same compound in another form.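 Kinases, fused to nanoluciferase, were expressed in K562 cells; luminescence was measured every 4 h from 2 to 18 h as percent of control (DMSO = 100%, positive control = 0%). A time point is decreased if signal falls significantly (2 sigma). Hits were called by the authors by a rule that is not shown; the count of time points alone does not decide it.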
How the values were obtained:
Assay in all cases: number of time points (of 5) at which kinase-Nluc abundance scored as decreased, DMSO-normalised (count); higher = more persistent destabilization
Details in all cases: K562; 2-18 h
EGFR_L861Q = EGFR_L861Q (UniProt P00533)
EGFR_T790M = EGFR_T790M (UniProt P00533)
EPHA2 = EPHA2 (UniProt P29317)
ERBB3 = ERBB3 (UniProt P21860)
[1] = target: ERBB4_R711C (clone: ERBB4_mut) (UniProt Q15303)
ERN1 = ERN1 (UniProt O75460)
FGFR1 = FGFR1 (UniProt P11362)
FGFR2 = FGFR2 (UniProt P21802)
FGFR3 = FGFR3 (UniProt P22607)
FGR = FGR (UniProt P09769)
FLT3 = FLT3 (UniProt P36888)
FYN = FYN (UniProt P06241)
GSK3A = GSK3A (UniProt P49840)
HER2 = HER2 (UniProt P04626)
INSRR = INSRR (UniProt P14616)
IRAK3 = IRAK3 (UniProt Q9Y616)
JAK1 = JAK1 (UniProt P23458)
LCK = LCK (UniProt P06239)
LIMK1 = LIMK1 (UniProt P53667)
LIMK2 = LIMK2 (UniProt P53671)

Sequences of proteins named here, by UniProt entry; tags and fusion partners are left off. A change or cut given only in a name is not applied to a line headed by its entry.
UniProt P29317, whole entry: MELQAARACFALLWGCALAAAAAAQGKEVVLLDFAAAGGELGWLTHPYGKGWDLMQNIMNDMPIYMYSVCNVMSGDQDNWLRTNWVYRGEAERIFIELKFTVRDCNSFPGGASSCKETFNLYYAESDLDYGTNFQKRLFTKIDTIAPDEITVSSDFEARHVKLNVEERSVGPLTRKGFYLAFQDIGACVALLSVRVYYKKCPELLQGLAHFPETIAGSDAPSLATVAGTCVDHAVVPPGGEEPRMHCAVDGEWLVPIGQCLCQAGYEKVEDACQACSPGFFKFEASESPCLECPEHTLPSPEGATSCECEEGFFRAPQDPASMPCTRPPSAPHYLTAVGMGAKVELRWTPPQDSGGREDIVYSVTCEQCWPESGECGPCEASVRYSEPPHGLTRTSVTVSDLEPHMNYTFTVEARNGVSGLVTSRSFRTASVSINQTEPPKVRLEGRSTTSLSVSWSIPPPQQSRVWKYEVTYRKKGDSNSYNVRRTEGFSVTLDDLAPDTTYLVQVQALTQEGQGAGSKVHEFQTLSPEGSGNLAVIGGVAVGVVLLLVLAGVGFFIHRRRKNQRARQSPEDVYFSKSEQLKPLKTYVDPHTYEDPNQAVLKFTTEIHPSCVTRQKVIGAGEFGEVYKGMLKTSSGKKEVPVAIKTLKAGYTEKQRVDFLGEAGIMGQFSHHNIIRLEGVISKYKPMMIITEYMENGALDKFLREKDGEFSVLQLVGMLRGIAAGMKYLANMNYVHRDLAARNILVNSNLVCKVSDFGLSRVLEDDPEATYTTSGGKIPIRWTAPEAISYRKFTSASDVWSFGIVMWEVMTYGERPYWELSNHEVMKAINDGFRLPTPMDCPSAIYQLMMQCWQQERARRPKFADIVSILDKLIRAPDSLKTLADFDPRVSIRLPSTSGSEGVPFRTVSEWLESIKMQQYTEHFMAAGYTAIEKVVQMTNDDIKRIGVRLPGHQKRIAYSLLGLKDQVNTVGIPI
UniProt P21860, whole entry: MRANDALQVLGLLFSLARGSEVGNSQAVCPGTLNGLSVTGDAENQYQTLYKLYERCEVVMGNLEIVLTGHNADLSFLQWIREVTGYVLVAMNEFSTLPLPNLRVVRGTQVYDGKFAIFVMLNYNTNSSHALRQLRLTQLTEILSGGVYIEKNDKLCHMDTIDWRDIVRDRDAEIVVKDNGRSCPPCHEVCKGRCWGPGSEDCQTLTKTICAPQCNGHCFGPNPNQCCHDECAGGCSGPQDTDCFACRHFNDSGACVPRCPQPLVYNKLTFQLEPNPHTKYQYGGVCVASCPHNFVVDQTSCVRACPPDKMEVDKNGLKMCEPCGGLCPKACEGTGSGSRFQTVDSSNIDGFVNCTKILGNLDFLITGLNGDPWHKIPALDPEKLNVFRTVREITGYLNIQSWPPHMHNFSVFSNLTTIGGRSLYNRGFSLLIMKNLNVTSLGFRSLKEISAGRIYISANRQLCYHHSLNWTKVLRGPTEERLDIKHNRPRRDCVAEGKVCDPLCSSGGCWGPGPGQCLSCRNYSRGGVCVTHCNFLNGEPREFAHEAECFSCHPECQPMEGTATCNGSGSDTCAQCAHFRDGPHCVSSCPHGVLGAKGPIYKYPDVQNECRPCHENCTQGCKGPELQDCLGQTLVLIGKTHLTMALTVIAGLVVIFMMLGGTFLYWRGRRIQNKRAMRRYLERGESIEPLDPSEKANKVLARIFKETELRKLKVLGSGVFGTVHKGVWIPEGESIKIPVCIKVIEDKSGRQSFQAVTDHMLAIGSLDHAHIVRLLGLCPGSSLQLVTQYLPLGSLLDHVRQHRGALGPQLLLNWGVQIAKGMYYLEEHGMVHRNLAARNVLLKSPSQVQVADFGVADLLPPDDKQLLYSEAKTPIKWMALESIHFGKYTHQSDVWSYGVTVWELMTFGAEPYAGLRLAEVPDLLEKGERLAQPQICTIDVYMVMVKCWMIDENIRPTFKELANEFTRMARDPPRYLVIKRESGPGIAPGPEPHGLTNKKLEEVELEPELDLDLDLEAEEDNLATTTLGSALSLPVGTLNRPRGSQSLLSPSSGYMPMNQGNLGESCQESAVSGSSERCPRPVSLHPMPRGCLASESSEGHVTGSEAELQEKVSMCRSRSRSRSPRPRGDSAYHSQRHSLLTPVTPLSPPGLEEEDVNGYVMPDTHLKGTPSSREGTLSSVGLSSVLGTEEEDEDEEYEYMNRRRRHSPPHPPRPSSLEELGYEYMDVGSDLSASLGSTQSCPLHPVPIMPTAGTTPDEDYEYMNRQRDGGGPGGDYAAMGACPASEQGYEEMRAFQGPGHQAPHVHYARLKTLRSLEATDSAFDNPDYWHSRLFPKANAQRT
UniProt O75460: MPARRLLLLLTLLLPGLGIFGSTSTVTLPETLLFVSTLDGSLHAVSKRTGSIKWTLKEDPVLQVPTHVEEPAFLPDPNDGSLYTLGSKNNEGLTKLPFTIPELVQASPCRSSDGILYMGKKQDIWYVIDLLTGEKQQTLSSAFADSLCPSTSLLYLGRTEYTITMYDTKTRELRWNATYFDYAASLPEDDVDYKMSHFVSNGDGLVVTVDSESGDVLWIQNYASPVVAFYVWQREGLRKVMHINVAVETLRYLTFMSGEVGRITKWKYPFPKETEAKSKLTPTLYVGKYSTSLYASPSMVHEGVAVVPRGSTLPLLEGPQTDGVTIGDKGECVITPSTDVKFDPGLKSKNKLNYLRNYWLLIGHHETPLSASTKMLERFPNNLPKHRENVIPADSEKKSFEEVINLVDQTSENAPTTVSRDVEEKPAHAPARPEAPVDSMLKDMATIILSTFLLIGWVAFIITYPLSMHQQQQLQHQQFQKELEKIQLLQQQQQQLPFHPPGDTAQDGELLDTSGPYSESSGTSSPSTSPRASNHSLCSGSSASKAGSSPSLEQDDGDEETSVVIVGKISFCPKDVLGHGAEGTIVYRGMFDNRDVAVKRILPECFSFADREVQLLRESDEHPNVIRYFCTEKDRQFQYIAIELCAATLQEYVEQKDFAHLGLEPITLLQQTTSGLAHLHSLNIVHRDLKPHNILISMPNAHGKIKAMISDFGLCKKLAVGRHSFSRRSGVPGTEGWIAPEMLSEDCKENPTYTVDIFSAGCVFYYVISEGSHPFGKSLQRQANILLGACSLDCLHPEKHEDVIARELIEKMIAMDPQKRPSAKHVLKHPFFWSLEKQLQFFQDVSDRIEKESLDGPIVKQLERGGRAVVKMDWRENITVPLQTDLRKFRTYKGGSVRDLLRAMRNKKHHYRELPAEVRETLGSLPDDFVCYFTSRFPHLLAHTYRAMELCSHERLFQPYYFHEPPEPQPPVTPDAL
UniProt P36888, whole entry: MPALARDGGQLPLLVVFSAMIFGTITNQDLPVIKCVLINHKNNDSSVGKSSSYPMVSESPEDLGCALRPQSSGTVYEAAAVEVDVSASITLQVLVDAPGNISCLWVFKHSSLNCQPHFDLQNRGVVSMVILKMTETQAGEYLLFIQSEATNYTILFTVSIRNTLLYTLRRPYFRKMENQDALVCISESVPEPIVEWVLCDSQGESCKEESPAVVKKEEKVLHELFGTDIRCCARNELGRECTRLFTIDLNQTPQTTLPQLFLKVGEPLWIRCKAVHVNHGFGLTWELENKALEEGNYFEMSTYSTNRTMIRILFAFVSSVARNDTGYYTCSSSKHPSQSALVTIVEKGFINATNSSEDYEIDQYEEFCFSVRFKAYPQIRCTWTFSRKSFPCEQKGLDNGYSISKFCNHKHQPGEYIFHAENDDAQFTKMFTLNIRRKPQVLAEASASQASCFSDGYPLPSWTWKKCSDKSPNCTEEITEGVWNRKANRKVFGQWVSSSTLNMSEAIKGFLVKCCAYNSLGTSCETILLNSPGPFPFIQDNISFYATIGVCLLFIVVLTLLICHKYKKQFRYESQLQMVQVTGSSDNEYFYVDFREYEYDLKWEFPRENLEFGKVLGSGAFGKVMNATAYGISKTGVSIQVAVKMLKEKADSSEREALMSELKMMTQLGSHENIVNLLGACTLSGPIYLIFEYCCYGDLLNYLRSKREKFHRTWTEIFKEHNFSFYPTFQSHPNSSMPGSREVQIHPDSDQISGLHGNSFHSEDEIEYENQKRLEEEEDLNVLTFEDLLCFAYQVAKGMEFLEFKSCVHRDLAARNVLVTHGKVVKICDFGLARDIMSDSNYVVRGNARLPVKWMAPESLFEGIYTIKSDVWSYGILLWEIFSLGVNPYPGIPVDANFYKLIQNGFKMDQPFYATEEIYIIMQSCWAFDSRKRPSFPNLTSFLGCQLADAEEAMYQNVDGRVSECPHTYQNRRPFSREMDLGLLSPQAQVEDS
UniProt P06241, whole entry, looked up: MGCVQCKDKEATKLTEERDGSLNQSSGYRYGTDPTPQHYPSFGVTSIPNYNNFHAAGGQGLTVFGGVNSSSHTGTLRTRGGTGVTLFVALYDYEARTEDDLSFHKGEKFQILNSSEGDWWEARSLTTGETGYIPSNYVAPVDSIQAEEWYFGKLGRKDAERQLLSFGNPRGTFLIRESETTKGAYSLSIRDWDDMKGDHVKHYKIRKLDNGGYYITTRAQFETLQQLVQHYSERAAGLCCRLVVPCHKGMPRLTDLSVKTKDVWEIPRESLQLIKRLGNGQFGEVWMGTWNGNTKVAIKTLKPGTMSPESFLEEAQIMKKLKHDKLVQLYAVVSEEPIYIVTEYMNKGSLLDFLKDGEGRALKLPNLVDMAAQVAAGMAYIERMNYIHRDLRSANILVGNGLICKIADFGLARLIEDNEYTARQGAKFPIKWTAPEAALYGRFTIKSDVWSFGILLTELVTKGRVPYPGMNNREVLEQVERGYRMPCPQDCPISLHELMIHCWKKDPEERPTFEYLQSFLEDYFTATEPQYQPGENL
UniProt P49840: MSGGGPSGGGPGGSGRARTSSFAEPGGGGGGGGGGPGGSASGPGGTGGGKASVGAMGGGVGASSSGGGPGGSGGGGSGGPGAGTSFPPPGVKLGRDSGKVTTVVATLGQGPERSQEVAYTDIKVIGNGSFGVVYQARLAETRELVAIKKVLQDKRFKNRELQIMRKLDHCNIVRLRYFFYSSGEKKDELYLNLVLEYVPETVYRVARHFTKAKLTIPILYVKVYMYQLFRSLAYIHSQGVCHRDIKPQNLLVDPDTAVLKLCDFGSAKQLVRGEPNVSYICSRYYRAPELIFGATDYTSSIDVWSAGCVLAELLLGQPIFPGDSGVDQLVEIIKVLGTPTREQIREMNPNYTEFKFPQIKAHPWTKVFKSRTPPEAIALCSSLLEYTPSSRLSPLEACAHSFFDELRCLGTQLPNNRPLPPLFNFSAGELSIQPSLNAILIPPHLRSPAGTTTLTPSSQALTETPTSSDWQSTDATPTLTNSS
UniProt Q9Y616: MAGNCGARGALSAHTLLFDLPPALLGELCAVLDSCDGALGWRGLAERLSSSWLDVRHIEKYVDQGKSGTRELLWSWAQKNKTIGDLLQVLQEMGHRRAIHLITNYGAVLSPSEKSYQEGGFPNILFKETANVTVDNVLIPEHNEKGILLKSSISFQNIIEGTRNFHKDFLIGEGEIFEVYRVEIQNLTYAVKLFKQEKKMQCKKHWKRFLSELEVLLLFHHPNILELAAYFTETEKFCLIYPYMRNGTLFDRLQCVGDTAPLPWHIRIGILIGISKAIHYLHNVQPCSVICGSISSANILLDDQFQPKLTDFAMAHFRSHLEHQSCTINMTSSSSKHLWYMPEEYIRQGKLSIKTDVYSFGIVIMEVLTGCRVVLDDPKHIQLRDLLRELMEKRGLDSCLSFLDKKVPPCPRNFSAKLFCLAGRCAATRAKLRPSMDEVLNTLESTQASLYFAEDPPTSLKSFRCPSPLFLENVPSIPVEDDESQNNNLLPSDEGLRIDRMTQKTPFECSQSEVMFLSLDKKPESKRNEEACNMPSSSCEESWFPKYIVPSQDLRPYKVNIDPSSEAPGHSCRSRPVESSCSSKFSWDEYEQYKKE
UniProt P06239: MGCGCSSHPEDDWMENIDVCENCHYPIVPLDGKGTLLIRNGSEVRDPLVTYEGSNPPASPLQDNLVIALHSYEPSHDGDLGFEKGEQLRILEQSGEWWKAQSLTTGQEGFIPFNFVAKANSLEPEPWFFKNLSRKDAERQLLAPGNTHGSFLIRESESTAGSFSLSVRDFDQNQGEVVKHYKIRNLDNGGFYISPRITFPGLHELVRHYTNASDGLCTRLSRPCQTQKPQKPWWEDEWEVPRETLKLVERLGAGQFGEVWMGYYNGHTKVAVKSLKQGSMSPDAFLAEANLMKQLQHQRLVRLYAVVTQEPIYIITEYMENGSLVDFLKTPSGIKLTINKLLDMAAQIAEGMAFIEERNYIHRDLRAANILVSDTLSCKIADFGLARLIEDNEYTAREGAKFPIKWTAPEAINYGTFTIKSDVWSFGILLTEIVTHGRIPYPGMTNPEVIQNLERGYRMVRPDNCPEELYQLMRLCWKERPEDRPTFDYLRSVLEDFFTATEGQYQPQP

Measured: number of time points

COc1ccc(Br)cc1NC(=O)Nc1cccc2c1ccn2Cc1ccnc(N)c1 (2.5 µM)
1: FGFR2
2: EGFR_L861Q
3: [1]
0: all other assays above

O=C1Nc2ccc(I)cc2/C1=C/c1cc(Br)c(O)c(Br)c1 (10 µM)
1: GSK3A | INSRR | LIMK2
2: EPHA2 | HER2
0: all other assays above

CC(Sc1nc2c(cnn2-c2cccc(Cl)c2)c(=O)[nH]1)C(N)=O (stereo not given) (10 µM)
0: all assays above

CC(C)=CCC/C(C)=C/CC/C(C)=C/C=C/C(C)=C/C(=O)O [Peretinoin] (10 µM)
0: all assays above

CO[C@H]1C[C@@H]2CC[C@@H](C)[C@@](O)(O2)C(=O)C(=O)N2CCCC[C@H]2C(=O)O[C@H]([C@H](C)C[C@@H]2CC[C@@H](OC(=O)C(C)(CO)CO)[C@H](OC)C2)CC(=O)[C@H](C)/C=C(\C)[C@@H](O)[C@@H](OC)C(=O)[C@H](C)C[C@H](C)/C=C/C=C/C=C/1C [Temsirolimus] (2.5 µM)
0: all assays above

Cn1c2cc([S+](C)[O-])sc2c2cnn(Cc3cccc(N)c3)c(=O)c21 (stereo not given) (2.5 µM)
0: all assays above

NS(=O)(=O)c1ccc(Nc2nc(-c3cccc(-c4ccccc4)c3)c3[nH]cnc3n2)cc1 (10 µM)
0: all assays above

CCCCCC(=O)N[C@@H](Cc1ccc(O)cc1)C(=O)OC (10 µM)
0: all assays above

COC(=O)[C@H](CCSC)NC(=O)c1ccc(NC[C@@H](N)CS)cc1-c1ccccc1 [FTI-277 (hydrochloride)] (10 µM)
0: all assays above

As a short view, 2 of the compounds above:
CO[C@H]1C[C@@H]2CC[C@@H](C)[C@@](O)(O2)C(=O)C(=O)N2CCCC[C@H]2C(=O)O[C@H]([C@H](C)C[C@@H]2CC[C@@H](OC(=O)C(C)(CO)CO)[C@H](OC)C2)CC(=O)[C@H](C)/C=C(\C)[C@@H](O)[C@@H](OC)C(=O)[C@H](C)C[C@H](C)/C=C/C=C/C=C/1C [Temsirolimus] (2.5 µM)
0: all assays above

Cn1c2cc([S+](C)[O-])sc2c2cnn(Cc3cccc(N)c3)c(=O)c21 (stereo not given) (2.5 µM)
0: all assays above

More records

Cn1cc(-c2cc(Oc3cc(F)c(NC(=O)C4(C(=O)Nc5ccccc5)CC4)cc3F)ccn2)cn1 (2.5 µM)
0: all assays above

C[C@@H](Nc1ncnc2[nH]c(-c3ccc(O)cc3)cc12)c1ccccc1 (2.5 µM)
0: all assays above

Cc1c(C)c(NCC(=O)N(C)C2CCN(Cc3ccc(C(N)=O)cc3)CC2)c(C)c(C)c1N (10 µM)
0: all assays above

Clc1ccc(C(c2ccc(Cl)cc2)[n+]2ccn(CC(OCc3ccc(Cl)cc3Cl)c3ccc(Cl)cc3Cl)c2)cc1 (stereo not given) [Calmidazolium chloride] (2.5 µM)
1: ERBB3
3: LIMK1
2: INSRR | LIMK2
0: all other assays above

O=C(Nc1cc(Cl)cc2c1[nH]c1cnccc12)c1cccnc1 (10 µM)
0: all assays above

CCn1c(-c2nonc2N)nc2c(C#CC(C)(C)O)ncc(OC[C@H]3CCCNC3)c21 (10 µM)
0: all assays above

C=CC(=O)Nc1cc(Nc2nccc(-c3cn(C)c4ccccc34)n2)c(OC)cc1N(C)CCNC [AZ7550 Mesylate] (2.5 µM)
4: HER2
3: LIMK1
2: ERBB3
0: all other assays above

O=C(NCCO)c1cc(C(=O)NCCO)cc(C(=O)NCCO)c1 (10 µM)
0: all assays above

CC(C)[C@H](CO)Nc1nc(Nc2cccc(Cl)c2)c2ncn(C(C)C)c2n1 [Purvalanol A] (10 µM)
1: HER2
0: all other assays above

N#Cc1ccc(-c2cnc3[nH]cc(NC(=O)c4cccnc4)c3c2)cc1 (10 µM)
0: all assays above

COc1cc2ncnc(Nc3cccc(I)c3)c2cc1OC (2.5 µM)
0: all assays above

Cc1cccc(/C=N/Nc2cc(N3CCOCC3)n3nc(-c4ccncc4)cc3n2)c1 (10 µM)
1: JAK1
0: all other assays above

Nc1nc(N)c2nc(-c3cccc(O)c3)c(-c3cccc(O)c3)nc2n1 (10 µM)
0: all assays above

COc1cc(-c2cc(-c3ccc(N4CCNCC4)cc3)cnc2C)cc(OC)c1OC (10 µM)
0: all assays above

CNC(=O)c1ccc2c(C(=Nc3cccc(CN(C)C)c3)c3ccccc3)c(O)[nH]c2c1 [MEK inhibitor] (10 µM)
0: all assays above

COc1cc2nccc(Oc3ccc(NC(=O)c4cn(C(C)C)c(=O)n(-c5ccc(F)cc5)c4=O)cc3F)c2cc1OC (0.5 µM)
1: FYN | HER2
2: EPHA2 | FGFR1 | FGFR2 | INSRR
0: all other assays above

Reference: the supplement of paper PMC12823440, “Inhibitors supercharge kinase turnover through native proteolytic circuits” (Nature, 2025)
